This is an account of results in the DeepSol protein solubility set.

The data set can be described thus: soluble on expression in E. coli; label from the status in PepcDB or PDB records.

With “MGHHHHHHSHMTSEFFSAQLRAQISDDTTHPISYYKPEFYMPDDGGTAHLSVVAEDGSAVSATSTINLYFGSKVRSPVSGILLNNEMDDFSSTSITNEFGVPPSPANFIQPGKQPLSSMCPTIMVGQDGQVRMVVGAAGGTQITMATALVCVTPFLPGRAHPAQPPSHADHTPMPQAIIYNLWFGYDVKWAVEEPRLHNQLLPNVTTVERNIDQEVTAALETRHHHTQITSTFIAVVQAIVRMAGGWAAASDSRKGGEPAGY”, the “soluble on expression in E. coli” value is “soluble”.

Regarding “MRTLFNLLWLALACSPVHTTLSKSDAKKAASKTLLEKSQFSDKPVQDRGLVVTDLKAESVVLEHRSYCSAKARDRHFAGDVLGYVTPWNSHGYDVTKVFGSKFTQISPVWLQLKRRGREMFEVTGLHDVDQGWMRAVRKHAKGLHIVPRLLFEDWTYDDFRNVLDSEDEIEELSKTVVQVAKNQHFDGFVVEVWNQLLSQKRVGLIHMLTHLAEALHQARLLALLVIPPAITPGTDQLGMFTHKEFEQLAPVLDGFSLMTYDYSTAHQPGPNAPLSWVRACVQVLDPKSKWRSKILLGLNFYGMDYATSKDAREPVVGARYIQTLKDHRPRMVWDSQASEHFFEYKKSRSGRHVVFYPTLKSLQVRLELARELGVGVSIWELGQGLDYFYDLL”, the “soluble on expression in E. coli” value is recorded as “soluble”. Turning to “MANLLPVTVLSGFLGAGKSTLLNYVLRNRENLRVAVIVNDMSEINIDGSEVQRDVSLNRAEEKLIEMSNGCICCTLREDLLEEVSRLAQDGRFDYLLIESTGISEPLPVAETFTFRDEAGKSLMDLARLDTMVTVVDGVNFLLDYEAADGLSTRGESLGEDDDRSITDLLIEQIEFADVILLSKIDLISSSEREELMAILKRLNPEAEIVPMVMGQVPLATILNTGRFDFQRASQAPGWLKEMRGEHTPETEEYGIASTAYRARRPFHPERFFNFINRPWTNGKLLRSKGFFWLASKYKDAGSWSQAGGLMRQGFAGRWWRFVNRESWPEDRESVKSILENWSTETGDCRQELVFIGQNIDFERLTAELDNCLLTDAEMEAGVERWRTLADPFGDWYEEEVAA”, the “soluble on expression in E. coli” value is given as “not soluble”.

“GPGSMGVDYYKVLGVSRNATPNEIKKAYHQLALKYHPDKNADNREKAERKFKEVSEAYDVLSDEKKKKIYDLYGEEGLKGGIPEDGGAGMGGAGMRFGGMPGGMPGGVRGATYQFSSTDAFKIFNQFFGTSDPFAGGEAFGGGGPGLHRVFRGFGGPEGFASGFGTPQSSPTRDVPPMEYTFACTLEEIYTGCTKKFNVSRNMPSGPEKKIFEVKVLPGYKKGTKIRFEREGGQVEGYPPNVFADMVFILDERPHPRFERRDADLHTTLHINLKQALLGSTVFVKGIDGQTISLPLNGVSKSGRKLRVSGSGLPDRKTNRNGDLYVTIAVDFPDSLTEDTKRLIEKCTF”: the “soluble on expression in E. coli” value is listed as “soluble”. The result for “MSLAQQVRWDERARCQAAQGPRVRERAAEEVAGRAVVRERPDQGCTAKKVVSAPARRTLVREWIGRGASERRALAVIGMSASALRYCPREDRNGELRERICALAHRHRRYGVGMIYLKLRQEGRIVNYKRVERLYREQQLQVRRRKRKKVPIGERQPLLRPSQANQVWSMDFVFDRTAEGRVIKCLVIVDDATHEAVAIEVERAISGHGVTRVLDRLAHSRGLPKVIRTDNGKEFCGKAMVAWAHARNVQLRLIQPGKPNQNAYVESFNGRLRDECLNEHWFPTLLHARTEIERWRREYNEDRPKKAIGGMTPAAYAQHLANTDIINPGLEGHHHHHH” reads “soluble”; that for “MVKETGYYDVLGVKPDASDNELKKAYRKMALKFHPDKNPDGAEQFKQISQAYEVLSDEKKRQIYDQGGEEALQGGGGGGEGFHNPFDVFDMFFGGGGRGGRGERRVKPTVHNLRVTLDTLYKGVTKKLKISRTATCKGCKGLGGNEGSAKECSDCRGRGIKVRVIRMGPMVQQMQSHCDSCNGEGSTFLEKDRCKKCNGKKQVKEDEIIEVGITPGMKDGEKFVFEGKGDEVIGIEKPGDFVVVLDEVEHEKFVRKGDNLIIQHNIDLSEALCGFVRTISTLDGRTIFYRVLPGEVIAHADVKVIHNEGMPMRRASSDKGDLLVQFDVKFPDKINPDAAKKLADLLPGKREEIIDEDAEVVELTELDPQASRRNFAERDDFEGHGGFGGHGHGPQGVQCQQS”, “soluble”; that for “MKDHDAIKLFIGQIPRNLDEKDLKPLFEEFGKIYELTVLKDRFTGMHKGCAFLTYCERESALKAQSALHEQKTLPGMNRPIQVKPADSESRGGSSCLRQPPSHRKLFVGMLNKQQSEDDVRRLFEAFGNIEECTILRGPDGNSKGCAFVKYSSHAEAQAAINALHGSQTMPGASSSLVVKFADTDKERTMRRMQQMAGQMGMFNPMAIPFGAYGAYAQALMQQQAALMASVAQGGYLNPMAAFAAAQMQQMAALNMNGLAAAPMTPTSGGSTPPGITAPAVPSIPSPIGVNGFTGLPPQANGQPAAEAVFANGIHPYPAQSPTAADPLQQAYAGVQQYAAAAYPAAYGQISQAFPQPPPMIPQQQREGPEGCNLFIYHLPQEFGDAELMQMFLPFGFVSFDNPASAQTAIQAMNGFQIGMKRLKVQLKRPKDANRPY”, “soluble”.
